Assay results published in PubChem BioAssay AID540256 (National Center for Advancing Translational Sciences (NCATS), 2011).
Screen size: about 300,000 compounds; about 3,700 (1.2%) were called active. The inconclusive results got no clear call from the source; some entries with a clear call stand among them for comparison. Calls follow the shape of the full dose curve; tested in HEK293 cells. Where the call is inconclusive, the potency comes from a doubtful curve fit.

assay: qHTS for Inhibitors of binding or entry into cells for Lassa Virus; settings: Lassa virus pseudotype entry inhibition, cell reporter; activity change, negative = inhibition: at 37.9 µM (top of the series) unless noted; also: nearly all actives have a fitted effect of over 50% in size
% is scaled to controls: 0 for no effect and ±100 for the full control effect; potency is read from the fitted curve at half-maximal effect.

| SMILES | Potency | activity change, negative = inhibition |
| --- | --- | --- |
| COc1cccc2cc(C(=O)Nc3ccc(CC(=O)O)cc3)c(=O)oc12 | inconclusive: 2.51 µM [inhibitor, full curve, poor fit] |  |
| CCNC(=S)NNC(=O)c1csc(C(C)C)c1 |  | inactive: 3.89% |
| Cc1cc(C)n2c(SCC(=O)N3CCN(S(=O)(=O)c4ccc(Cl)cc4)CC3)nnc2n1 |  | inactive: -11.5% |
| NC(=O)c1nsc(C(=O)N(c2ccccc2F)C(C(=O)NCc2ccc(F)cc2)c2ccc(O)cc2)c1N (centres undefined) | inconclusive: 1 µM [inhibitor, full curve] |  |
| COc1cc(C=NNc2ncnc3[nH]ncc23)ccc1O | inconclusive: 11.2 µM [inhibitor, full curve, poor fit] |  |
| COc1cc(C2C3=C(CCCC3=O)Nc3[nH]n(-c4ccccc4)c(=O)c32)ccc1OC(C)=O (centres undefined) | inconclusive: 12.6 µM [inhibitor, partial curve, poor fit] |  |
| CCc1ccc(C(=O)CN2CCSC2=N)cc1 | inconclusive: 13 µM [inhibitor, single point] |  |
| COc1ccccc1N1CCN(C(=O)c2cc(-c3ccc(C)c(F)c3)on2)CC1 | inconclusive: 35.5 µM [inhibitor, single point] |  |
| CNC(=O)c1ccsc1NC(=O)c1ccc(S(=O)(=O)N2CCCc3ccccc32)cc1 | active: 16.4 µM |  |
| COc1ccc(C)cc1CN(C)c1ccc(S(=O)(=O)N2CCN(C)CC2)cn1 |  | inactive: 4.88% |
| CCOC(=O)C(O)(c1ccc(NC(=S)NC(=O)c2ccc(Cl)cc2Cl)cc1)C(F)(F)F (centres undefined) | inconclusive: 11.6 µM [inhibitor, partial curve] |  |
| COCCCNC(=O)CN1C(=O)c2cccnc2Sc2ccccc21 | inconclusive: 2 µM [activator, partial curve, poor fit] |  |
| O=C(Nc1cccc(C(F)(F)F)c1)Nc1nnc(N2CCCCCC2)s1 |  | inactive: -28% [at 46.1 µM] |
| COc1ccc(S(=O)(=O)N2CCN(C(=O)c3c(C)nn(-c4ccccc4)c3Cl)CC2)cc1 | inconclusive: 14.1 µM [inhibitor, partial curve, poor fit] |  |
| O=C(c1ccc2c(c1)OCCO2)N1CCCCC1 | inconclusive: 18.3 µM [activator, partial curve] |  |
| C=CCN(CC=C)C(=O)c1cc2ccccc2c(=O)o1 |  | inactive: 12.8% |
| CCCNC(=O)CCC(=O)N1Cc2cccc(OC)c2Oc2ncccc21 | inconclusive: 14.1 µM [activator, single point] |  |
| O=C(NCc1ccc(Cl)cc1)C1CCN(c2nn3cc(-c4ccc(F)cc4)nc3s2)CC1 |  | inactive: 0.568% [at 46.1 µM] |
| O=C(N/N=C/c1ccc(Cl)cc1)c1cc2c(s1)-c1ccccc1CC2 | inconclusive: 7.94 µM [inhibitor, partial curve, poor fit] |  |
| O=C(Nc1cccc(/C=C/c2ccccn2)c1)c1ccc(-n2cncn2)c([N+](=O)[O-])c1 | inconclusive: 22.4 µM [inhibitor, partial curve, poor fit] |  |
| Cc1ccc(-n2cnc(N)c2C(=O)c2cccc([N+](=O)[O-])c2)cc1 | inconclusive: 10 µM [inhibitor, partial curve, poor fit] |  |
| COc1ccc(NC(=O)c2oc3ccc(S(=O)(=O)N4CCC5(CC4)OCCO5)cc3c2C)cc1 | inconclusive: 29.1 µM [inhibitor, single point] |  |
| O=C(CCc1c[nH]c2ccccc12)NCc1ccc2c(c1)OCO2 | inconclusive: 0.891 µM [inhibitor, partial curve, poor fit] |  |

| SMILES | Potency | activity change, negative = inhibition |
| --- | --- | --- |
| Cc1ccc(Cn2cccc(NC(=O)NCc3ccccc3)c2=O)cc1 |  | inactive: 0% |
| CN(CC(=O)Nc1ccc(S(=O)(=O)N(C)C)cc1)Cc1ccc(C(F)(F)F)cc1 | inconclusive: 35.5 µM [inhibitor, single point] |  |
| O=C(c1ccc(S(=O)(=O)N2CCCC2)cc1)N(c1ccccc1)C1C=CS(=O)(=O)C1 (centres undefined) |  | inactive: 24.3% |
| O=C(NNC(=O)c1cc(-c2ccccc2)nc2ccccc12)Nc1cccc(Cl)c1 |  | inactive: -14.9% |
| CCCCOC(=O)Nc1cccc(Cl)c1C |  | inactive: 33.9% |
| Cc1cc(C)cc(C(=O)OCC(=O)Nc2cccc(S(=O)(=O)NC3=NCCCCC3)c2)c1 | inconclusive: 32.6 µM [inhibitor, single point] |  |
| Cc1cccc(NC(=O)CSc2nc3ccc(NC(=O)COc4ccccc4C)cc3s2)c1 | inconclusive: 3.55 µM [activator, single point] |  |
| O=C1c2ccccc2NC(c2ccc([N+](=O)[O-])cc2)N1O (centres undefined) | inconclusive: 16.4 µM [inhibitor, single point] |  |
| CCCn1c(=O)[nH]c(=O)c2c1nc(-c1ccc3c(c1)OCCO3)n2CCN1CCOCC1 | inconclusive: 20.6 µM [inhibitor, partial curve] |  |
| CC(C)c1ccc(C(=O)NNC(=O)c2ccncc2)cc1 | inconclusive: 0.501 µM [activator, full curve, poor fit] |  |
| Cc1ccc(OCc2nc(-c3ccc(Cl)cc3)n[nH]2)cc1 | inconclusive: 1.83 µM [inhibitor, full curve, poor fit] |  |
| Cc1cccc(CSc2nc3c(sc4ccccc43)c(=O)n2CCC(=O)NC(C)C)c1 |  | inactive: 21.9% [at 46.1 µM] |
| O=C(NCc1cc(Br)cc(Br)c1OC(=O)c1ccccc1[N+](=O)[O-])c1ccccc1 | inconclusive: 35.5 µM [inhibitor, single point] |  |
| Cc1ccc(/C=N/NC(=O)Cn2nccc2C)o1 |  | inactive: -3.8% |
| OCCCN1CCN(CCOc2ccccc2-c2ccccc2)CC1 |  | inactive: 8.2% |
| CN(C)CCSc1nc(N)c2c3c(sc2n1)CN(C)CC3 |  | inactive: -1.54% |
| O=C1CN(C(=O)COC(=O)C2=COCCO2)c2ccccc2N1 |  | inactive: -0.862% |
| CCS(=O)(=O)Nc1ccc(C2=NN(C(=O)c3ccco3)C(c3ccco3)C2)cc1 (centres undefined) | inconclusive: 6.31 µM [inhibitor, partial curve, poor fit] |  |
| COc1ccc(NS(=O)(=O)c2ccc3c(c2)CCCN3C(C)=O)cc1 | inconclusive: 5.62 µM [inhibitor, partial curve, poor fit] |  |
| NNc1nc2c(Cl)c(Cl)ccc2s1 |  | inactive: 7.47% |
| O=S(=O)(N=C(NS(=O)(=O)c1ccc(Cl)cc1)c1ccccc1)c1ccc(Cl)cc1 |  | inactive: -0.816% |
| Cc1ccc2cc(C)c3nnc(SCC(=O)c4cccs4)n3c2c1C | inconclusive: 35.5 µM [inhibitor, single point] |  |
| CCC(C)C(NC(=O)c1ccccc1NC(=O)c1ccco1)C(=O)NNC(=O)c1ccncc1 (centres undefined) | inconclusive: 6.31 µM [activator, full curve, poor fit] |  |

Entries of single compounds, looked up by structure:
`CCCn1c(=O)[nH]c(=O)c2c1nc(-c1ccc3c(c1)OCCO3)n2CCN1CCOCC1` in the list: Potency: inconclusive: 20.6 µM [inhibitor, partial curve]
`Cc1cccc(CSc2nc3c(sc4ccccc43)c(=O)n2CCC(=O)NC(C)C)c1` in the list: activity change, negative = inhibition: inactive: 21.9% [at 46.1 µM]
`CC(C)c1ccc(C(=O)NNC(=O)c2ccncc2)cc1` in the list: Potency: inconclusive: 0.501 µM [activator, full curve, poor fit]
`OCCCN1CCN(CCOc2ccccc2-c2ccccc2)CC1` in the list: activity change, negative = inhibition: inactive: 8.2%

The listing continues:

| SMILES | Potency | activity change, negative = inhibition |
| --- | --- | --- |
| O=C(CSc1nc2ccccc2o1)NCC(=O)c1ccccc1 |  | inactive: 6.28% |
| O=C(COc1ccc(/C=N/NC(=O)c2cccnc2)cc1)Nc1ccccc1 |  | inactive: 1.35% |
| Cc1nc(N2N=C(c3ccc(Cl)cc3)CC2c2ccco2)sc1C(=O)N(C)C (centres undefined) | inconclusive: 15.8 µM [inhibitor, partial curve, poor fit] |  |
| CCN(CC)S(=O)(=O)c1ccc(NN)nc1 | inconclusive: 22.4 µM [inhibitor, single point] |  |
| COc1ccc(-n2cc(-c3ccccc3)c3c(N4CCN(CCO)CC4)ncnc32)cc1 | inconclusive: 32.6 µM [inhibitor, single point] |  |
| O=C(COC(=O)c1c[nH]c2ccccc12)Nc1ccccc1 |  | inactive: 8.37% |
| CCN1CCN(C(=S)NCCc2ccccc2)CC1 | inconclusive: 8.2 µM [activator, partial curve] |  |
| CCN(CC)S(=O)(=O)c1cc(NC(=O)C(C)N2CCN(c3ccccn3)CC2)ccc1C (centres undefined) | inconclusive: 8.91 µM [inhibitor, partial curve] |  |
| CCOC(=O)c1cccc(NC(=O)c2ccc3c(c2)OCO3)c1 | inconclusive: 35.5 µM [inhibitor, single point] |  |
| Cc1cc(C)c(-c2n[nH]c3c2C(c2ccccc2F)N(Cc2ccco2)C3=O)c(O)c1 (centres undefined) | inconclusive: 35.5 µM [inhibitor, single point] |  |
| CCOC(=O)C1(Cc2ccccc2Cl)CCN(C(=O)c2cnccn2)CC1 | inconclusive: 11.2 µM [activator, partial curve, poor fit] |  |
| COC(=O)c1c(-c2cccnc2)csc1NC(=O)c1ccc2c(c1)OCO2 | inconclusive: 35.5 µM [inhibitor, single point] |  |
| COc1cc(C)c(N)cc1C(C)C | inconclusive: 6.51 µM [activator, single point] |  |
| CN1CCC(NC(=O)NC2CCCCC2)CC1 |  | inactive: 21.9% [at 46.1 µM] |
| Cc1ccc(S(=O)(=O)N2CCCN(C(=O)c3cc4ccccc4[nH]3)CC2)cc1 |  | inactive: 0.104% |
| O=c1[nH]c2cc(Br)ccc2n2cccc12 | inconclusive: 0.316 µM [inhibitor, full curve, poor fit] |  |
| COc1ccc(-c2csc(NC3=NCCCCC3)n2)cc1 | inconclusive: 18.4 µM [inhibitor, partial curve] |  |
| O=C1CCCC2=C1C(c1ccc(O)c(Br)c1)C1=C(CCCC1=O)N2c1ccccc1 | inconclusive: 35.5 µM [inhibitor, single point] |  |
| Cc1nnc(SCC(=O)Nc2sccc2C#N)s1 |  | inactive: 22.4% [at 46.1 µM] |
| COc1ccc(C(=O)NCCn2cc(SCc3c(F)cccc3Cl)c3ccccc32)cc1 |  | inactive: -27.2% [at 46.1 µM] |
| O=C(COC(=O)Cn1nnc2ccccc21)NC1CCCC1 | inconclusive: 6.31 µM [activator, single point] |  |
| COc1ccc(C(=O)Nc2cccc(-c3cc4ccccc4oc3=O)c2)cc1[N+](=O)[O-] | inconclusive: 11.2 µM [inhibitor, single point] |  |
| N#CC1=C(N2CCCCC2)c2cc3c(n2C1=O)CCCC3 | inconclusive: 35.5 µM [inhibitor, single point] |  |
